How the values were obtained:
Type in all cases: in vivo, human
[1] = Metabolomic profiling of blood plasma, 62 ALS subjects vs 62 control subjects (Example 3; Tables 7, 8); details: blood plasma
[2] = Disease progression: plasma of 40 ALS subjects, random coefficient regression analysis over time (Table 16); details: common slope of plasma metabolite level over month (0, 1, 6, 12), positive = level increased over time, negative = decreased
[3] = Disease progression: plasma of ALS subjects, matched-pairs T-test month 1 vs month 12 (Table 18); details: mean plasma level, month 1 vs month 12 after screening; positive = increase as disease progressed; 37 ALS patients
[4] = Metabolomic profiling (GC-MS/LC-MS) of CSF samples, ALS subjects vs control subjects (Example 1; Tables 3, 4); details: CSF
[5] = ALS mean level compared to control mean level, positive = increase in ALS
[6] = ALS mean as compared to control mean, T-tests of ALS vs. Controls
[7] = mean in ALS samples vs control samples, T-tests
[8] = ALS mean level vs control mean level, 62 ALS vs 62 control subjects, analytical platform GC-MS
[9] = ALS mean level vs control mean level, 62 ALS vs 62 control subjects, analytical platform LC-MS

CC[C@H](C)[C@H](N)C(=O)O [Isoleucine]
% change in ALS [1, 5]: 2%
SLOPE [2]: 0.003
% Change with disease progression [3]: 4%

O=C(O)C(=O)O [oxalic acid]
% change in ALS [4, 6]: 8%
Increase (+) or Decrease (−) in ALS [4, 7]: +
SLOPE [2]: −0.004
% Change with disease progression [3]: −6%

O=C1CCNC(=O)N1 [5-6-dihydrouracil]
SLOPE [2]: 0.002
% Change with disease progression [3]: 1%

CCCCCCCC/C=C\CCCCCCCC(=O)O [Oleic-Acid]
SLOPE [2]: 0.019
% Change with disease progression [3]: 31%

CCCCCCCCCCCCCCCCCC(=O)O [octadecanoic acid]
% change in ALS [1, 5]: 11%
% change in ALS [1, 8]: 11%
SLOPE [2]: −0.002
% Change with disease progression [3]: −1%

CC(CCC(=O)NCC(=O)O)C1CCC2C3C(O)CC4CC(O)CCC4(C)C3CCC12C (stereo not shown) [glycochenodeoxycholic acid]
SLOPE [2]: −0.017
% Change with disease progression [3]: −33%

OC[C@H]1OC(O)[C@@H](O)[C@@H](O)[C@@H]1O (stereo partly shown) [Mannose]
% change in ALS [1, 5]: 0%
SLOPE [2]: 0.009
% Change with disease progression [3]: 12%

NCCCC[C@H](N)C(=O)O [Lysine]
SLOPE [2]: 0.011
% Change with disease progression [3]: 12%

OC[C@H]1OC(O)[C@H](O)[C@@H](O)[C@@H]1O (stereo partly drawn) [D-glucose]
SLOPE [2]: 0.001
% Change with disease progression [3]: −1%

N[C@@H](CC(=O)O)C(=O)O [Aspartate]
% change in ALS [1, 5]: 3%
% change in ALS [1, 9]: 3%
SLOPE [2]: −0.002
% Change with disease progression [3]: 1%

NCC(=O)O [Glycine]
% change in ALS [1, 5]: 9%
% change in ALS [1, 8]: 9%
SLOPE [2]: 0.070
% Change with disease progression [3]: 69%

C[C@]12CCC(=O)C=C1CC[C@@H]1[C@@H]2[C@@H](O)C[C@]2(C=O)[C@@H](C(=O)CO)CC[C@@H]12 [Aldosterone]
SLOPE [2]: 0.000
% Change with disease progression [3]: 10%

O=C(O)CNC(=O)c1ccccc1 [hippuric acid]
% change in ALS [1, 5]: 6%
% change in ALS [1, 9]: 6%
SLOPE [2]: −0.040
% Change with disease progression [3]: −37%

OC[C@H]1O[C@@H](O[C@H]2[C@H](O)[C@H](O)C(O)O[C@@H]2CO)[C@H](O)[C@@H](O)[C@H]1O (stereo partly drawn) [4-O-beta-galactopyranosyl-D-mannopyranose]
SLOPE [2]: 0.004
% Change with disease progression [3]: 3%

O=C(O)C(O)Cc1ccc(O)cc1 (stereo not shown) [(p-Hydroxyphenyl)lactic acid]
SLOPE [2]: −0.012
% Change with disease progression [3]: −15%

O=C(O)[C@H](O)COP(=O)(O)O [3-phospho-d-glycerate]
SLOPE [2]: −0.009
% Change with disease progression [3]: −19%

C[C@H](CCC(=O)NCC(=O)O)[C@H]1CC[C@H]2[C@@H]3[C@H](O)C[C@@H]4C[C@H](O)CC[C@]4(C)[C@H]3C[C@H](O)[C@]12C [glycocholic acid]
SLOPE [2]: 0.015
% Change with disease progression [3]: −16%

CNC(=N)N [1-methyl-guanidine]
SLOPE [2]: −0.006
% Change with disease progression [3]: −5%

OC[C@@H](O)[C@@H](O)CO [meso-erythritol]
SLOPE [2]: −0.002
% Change with disease progression [3]: −7%

n-dodecanoate
SLOPE [2]: −0.018
% Change with disease progression [3]: −22%

CCCCCCCCCCCCCCCCC(=O)O [heptadecanoic acid]
SLOPE [2]: −0.005
% Change with disease progression [3]: −1%

OC[C@H]1OC[C@H](O)[C@@H](O)[C@@H]1O [1,5-anhydro-D-glucitol]
SLOPE [2]: −0.005

O=Cc1ccc(O)cc1 [p-hydroxybenzaldehyde]
SLOPE [2]: −0.002
% Change with disease progression [3]: 0%

CC(C)C[C@H](NC(=O)CC[C@H](N)C(=O)O)C(=O)O [gamma-glu-leu]
SLOPE [2]: −0.015
% Change with disease progression [3]: −16%

C[C@]12CC[C@H](OS(=O)(=O)[O-])CC1=CC[C@@H]1[C@@H]2CC[C@]2(C)C(=O)CC[C@@H]12.O.[Na+]
SLOPE [2]: −0.005
% Change with disease progression [3]: −5%

OC[C@H]1O[C@@H](O[C@H]2[C@H](O)[C@H](O)C(O)O[C@@H]2CO)[C@H](O)[C@@H](O)[C@H]1O (stereo partly shown) [Phosphate]
SLOPE [2]: 0.002
% Change with disease progression [3]: 2%

Nc1ccccc1C(=O)C[C@H](N)C(=O)O [L-kynurenine]
SLOPE [2]: −0.004
% Change with disease progression [3]: −6%

CC(C)(CO)[C@@H](O)C(=O)NCCC(=O)O [pantothenic acid]
SLOPE [2]: 0.057
% Change with disease progression [3]: 33%

CCCCC/C=C\C/C=C\CCCCCCCC(=O)O [Linoleic acid]
SLOPE [2]: 0.000
% Change with disease progression [3]: 6%

O=C[C@H](O)[C@H](O)CO [Eythrose]
SLOPE [2]: −0.010

OC[C@H]1OC[C@H](O)[C@@H](O)[C@@H]1O [1-5-anhydro-D-glucitol]
% Change with disease progression [3]: −8%

O=c1[nH]cnc2nc[nH]c12 [Hypoxanthine]
SLOPE [2]: 0.141
% Change with disease progression [3]: 73%

Cn1cncc1C[C@H](N)C(=O)O [3-methyl-L-histidine]
SLOPE [2]: −0.013
% Change with disease progression [3]: −15%

C[N+](C)(C)CCCC[C@H](N)C(=O)[O-] [N-6-trimethyl-l-lysine]
SLOPE [2]: −0.022
% Change with disease progression [3]: −22%

Cn1cnc2c1c(=O)[nH]c(=O)n2C [Theobromine]
SLOPE [2]: 0.011
% Change with disease progression [3]: 2%

N=C(N)NCCC[C@H](N)C(=O)O [Arginine]
SLOPE [2]: −0.019
% Change with disease progression [3]: −12%

O=C(O)C(O)Cc1c[nH]c2ccccc12 (racemic) [DL-indole-3-lactic acid]
SLOPE [2]: −0.002
% Change with disease progression [3]: −9%

CC(=O)O[C@H](CC(=O)[O-])C[N+](C)(C)C.Cl [O-acetyl-L-carnitine-hydrochloride]
SLOPE [2]: 0.027
% Change with disease progression [3]: 39%

CC(=O)c1cnccn1 [Acetylpyrazine]
SLOPE [2]: −0.002
% Change with disease progression [3]: −4%

O=C1CC[C@@H](C(=O)O)N1 [5-oxoproline]
SLOPE [2]: −0.003
% Change with disease progression [3]: −7%

N[C@@H](CCC(=O)N[C@@H](Cc1ccc(O)cc1)C(=O)O)C(=O)O [gamma-L-glutamyl-L-tyrosine]
SLOPE [2]: −0.019
% Change with disease progression [3]: −22%

O=C(O)CN(CCO)CCO [Bicine]
SLOPE [2]: 0.008
% Change with disease progression [3]: 17%

CCC(O)C(=O)O (stereo not shown) [2-hydroxybutyric acid]
SLOPE [2]: 0.005
% Change with disease progression [3]: 11%

CN(CC(=O)O)C(=N)N [Creatine]
SLOPE [2]: −0.011
% Change with disease progression [3]: −1%

CCCCCCCC/C=C\CCCCCCCC(=O)OCC(O)CO (racemic)
SLOPE [2]: −0.018
% Change with disease progression [3]: −13%

O=P(O)(O)OC1[C@H](O)[C@H](O)C(O)[C@H](O)[C@H]1O (stereo partly shown) [inositol-1-phosphate]
SLOPE [2]: −0.026
% Change with disease progression [3]: −25%

C=C(OP(=O)(O)O)C(=O)O [phosphoenolpyruvate]
SLOPE [2]: 0.007
% Change with disease progression [3]: 1%

Lactate
SLOPE [2]: 0.018
% Change with disease progression [3]: 2%

O=S(=O)(O)Oc1c[nH]c2ccccc12 [listing 1 of 2 here]
SLOPE [2]: −0.009
% Change with disease progression [3]: −11%

O=C(O)CCCC[C@@H]1SC[C@@H]2NC(=O)N[C@@H]21 [Biotin]
SLOPE [2]: −0.028
% Change with disease progression [3]: −32%

O=C(O)C1CCCCN1 (racemic) [DL-pipecolic acid]
SLOPE [2]: −0.015
% Change with disease progression [3]: −9%

Cc1cc2nc3c(=O)[nH]c(=O)nc-3n(C[C@H](O)[C@H](O)[C@H](O)CO)c2cc1C [Riboflavine]
SLOPE [2]: −0.024
% Change with disease progression [3]: −24%

N[C@@H](CCC(=O)N[C@@H](Cc1ccccc1)C(=O)O)C(=O)O
SLOPE [2]: −0.017
% Change with disease progression [3]: −22%

O=C(O)C(O)C(O)C(=O)O (stereo not shown) [tartaric acid]
% change in ALS [1, 5]: −15%
% change in ALS [1, 9]: −15%

O=C(O)C1(O)C[C@@H](O)C(O)[C@H](O)C1 (stereo partly drawn) [D-quinic acid]
SLOPE [2]: −0.045
% Change with disease progression [3]: −43%

O=C[C@@H](O)[C@@H](O)[C@H](O)CO [D-lyxose]
% change in ALS [1, 5]: −16%
% change in ALS [1, 8]: −16%

C[S+]([O-])CC[C@H](N)C(=O)O (stereo partly shown) [methionine-sulfoxide]
SLOPE [2]: −0.023
% Change with disease progression [3]: −19%

O=C(O)c1cc(O)c2ccccc2n1 [4-hydroxy-2-quinolinecarboxylic acid]
% change in ALS [4, 6]: 12%
% change in ALS ([4]; ALS mean as compared to the control mean): 12%
Increase (+) or Decrease (−) in ALS ([4]; mean in ALS samples as compared to control samples): +
Increase (+) or Decrease (−) in ALS [4, 7]: +
% change in ALS [1, 5]: 5%
% change in ALS [1, 9]: 5%

O[C@H]1[C@H](O)[C@@H](O)[C@H](O)[C@@H](O)[C@H]1O [Metabolite - 3085 retired: inositol]
% change in ALS [1, 5]: 4%
% change in ALS [1, 8]: 4%

O=C(O)[C@@H](O)[C@@H](O)[C@H](O)[C@@H](O)C(=O)O [Glucarate]
% change in ALS [1, 5]: 4%
% change in ALS [1, 8]: 4%

O=C(O)C(=O)CS [Mercaptopyruvate]
% change in ALS [1, 5]: −23%
% change in ALS [1, 9]: −23%

CCC(N)C(=O)O (stereo not shown) [Metabolite 2-amino-butyrate, 2-amino-butyrate]
% change in ALS [1, 5]: 1%

O=S(=O)(O)Oc1c[nH]c2ccccc12 [listing 2 of 2 here]
% change in ALS [1, 5]: 0%

CC(C)C[C@H](NC(=O)CC[C@H](N)C(=O)O)C(=O)O [Metabolite - 2306 retired: gamma glu leu]
% change in ALS [1, 5]: 6%
% change in ALS [1, 9]: 6%
